The text below walks through data of patent US20230203127A1.

Results are given in words; binding and its absence hold for the method and conditions named. Binding can be weak; no strength is given.

The labels stand for the following.
B1: … (SEQ ID NO: 121) (peptide)
peptide: ALYVQAPTV
B2: … (SEQ ID NO: 116) (peptide)
peptide: ALLSSVAEA
B3: … (SEQ ID NO: 110) (peptide)
peptide: QIQGQVSEV
B4: … (SEQ ID NO: 129) (peptide)
peptide: KMASKVTQV
B5: … (SEQ ID NO: 130) (peptide)
peptide: QLYGSAITL
B6: … (SEQ ID NO: 136) (peptide)
peptide: LLWDAPAKC
B7: … (SEQ ID NO: 122) (peptide)
peptide: SIIDTELKV
B8: … (SEQ ID NO: 128) (peptide)
peptide: SILTNISEV
B9: … (SEQ ID NO: 137) (peptide)
peptide: KLIYKDLVSV
B10: … (SEQ ID NO: 134) (peptide)
peptide: SLYKSFLQL
B11: … (SEQ ID NO: 126) (peptide)
peptide: QLREAFEQL
B12: … (SEQ ID NO: 1) (peptide)
peptide: KLQEKIQEL
B13: … (SEQ ID NO: 133) (peptide)
peptide: FLDGRPLTL
B14: … (SEQ ID NO: 131) (peptide)
peptide: SLYPHFTLL
B15: … (SEQ ID NO: 111) (peptide)
peptide: AQLEGKLVSI
B16: … (SEQ ID NO: 115) (peptide)
peptide: ILHGEVNKV
B17: … (SEQ ID NO: 123) (peptide)
peptide: QTAPEEAFIKL
B18: … (SEQ ID NO: 132) (peptide)
peptide: ALLNNVIEV
B19: … (SEQ ID NO: 125) (peptide)
peptide: AALEVLAEV
B20: … (SEQ ID NO: 12) (peptide)
peptide: RLLDPKTIFL
B21: … (SEQ ID NO: 124) (peptide)
peptide: ALLLRLFTI
B22: … (SEQ ID NO: 113) (peptide)
peptide: FLFLKEVKV
B23: … (SEQ ID NO: 13) (peptide)
peptide: RLHDENILL
B24: … (SEQ ID NO: 14) (peptide)
peptide: YTFSGDVQL
B25: … (SEQ ID NO: 117) (peptide)
peptide: TLLEGISRA
B26: … (SEQ ID NO: 112) (peptide)
peptide: ILAQDVAQL
B27: … (SEQ ID NO: 119) (peptide)
peptide: SLIEESEEL
B28: … (SEQ ID NO: 114) (peptide)
peptide: LLFPSDVQTL

For this assay, the target named is HLA-A*02:01 (human). The experiment in a line: UV peptide-exchange ELISA, exchange yield grade. (An ELISA detects its analyte on a solid surface through an enzyme-linked reagent.)
For B1, the binding result is listed as “binds”. With B2, the binding result is given as “binds”. In the case of B3, the binding entry is recorded as “binds”.

For the molecule B4, the binding entry is on record as “binds”. The entry for B5 is “binds”; for B6 it is “binds”. The entry for B7 is “binds”. Turning to B8, the binding result is recorded as “binds”. On to B9, for which the binding entry was “binds”. Consider B10, for which the binding entry is given as “binds”. For B11, the binding entry is “binds”. With B12, the binding result is listed as “binds”.

B13: the binding entry is given as “binds”. For B14, the binding entry is listed as “binds”.

Regarding B15, the binding entry was “binds”. Turning to B16, the binding result is recorded as “binds”. B17: the binding entry is recorded as “binds”. Consider B18, for which the binding result is “binds”.

As to B19, the binding entry was “binds”.

Turning to B20, the binding result was “binds”. Turning to B21, the binding entry was “binds”. Next, B22: “binds”. Take B23: the binding result is recorded as “binds”. B24: the binding entry is “binds”. The entry for B25 is “binds”; for B26 it is “binds”. For the molecule B27, the binding result is recorded as “binds”. B28: the binding entry was “binds”.
